# The supplement of paper PMC8728848
# This is one part of the list.
# How the values were obtained:
# Experiment in all cases: glycan array binding signal (z-score within array); higher = stronger binding
# Details in all cases: glycan notation: IUPAC condensed, linker removed
# [1] = molecular target: Neu5Ac(a2-3)Gal(b1-4)GlcNAc(b1-3)Gal(b1-4)GlcNAc(b1-3)Gal(b1-4)GlcNAc
# How it was run: (§1)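 Glycan array binding is given as a within-array Z-score, which can be read as non-binding when negative. The arrays, 3228 of them, came from the Consortium for Functional Glycomics database and were retained only where the protein sequence was available. Z-scores were averaged across arrays of the same protein sequence at different concentrations or buffers and across linkers.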
# [2] = molecular target: Neu5Ac(a2-3)Gal(b1-4)GlcNAc(b1-3)Gal(b1-4)GlcNAc(b1-3)Gal(b1-4)GlcNAc(b1-2)Man(a1-3)[Neu5Ac(a2-3)Gal(b1-4)GlcNAc(b1-3)Gal(b1-4)GlcNAc(b1-3)Gal(b1-4)GlcNAc(b1-2)Man(a1-6)]GalNAc
# How it was run: as §1
# [3] = molecular target: Neu5Ac(a2-3)Gal(b1-4)GlcNAc(b1-3)Gal(b1-4)GlcNAc(b1-3)GalNAc
# How it was run: as §1
# [4] = molecular target: Neu5Ac(a2-3)Gal(b1-4)GlcNAc(b1-3)Gal(b1-4)GlcNAc(b1-3)[Neu5Ac(a2-3)Gal(b1-4)GlcNAc(b1-3)Gal(b1-4)GlcNAc(b1-6)]GalNAc
# How it was run: as §1
# [5] = molecular target: Neu5Ac(a2-3)Gal(b1-4)GlcNAc(b1-3)Gal(b1-4)GlcNAc(b1-6)[Gal(b1-3)]GalNAc
# How it was run: as §1
# [6] = molecular target: Neu5Ac(a2-3)Gal(b1-4)GlcNAc(b1-3)Gal(b1-4)[Fuc(a1-3)]GlcNAc
# How it was run: as §1
# [7] = molecular target: Neu5Ac(a2-3)Gal(b1-4)GlcNAc(b1-3)GalNAc
# How it was run: as §1
# [8] = molecular target: Neu5Ac(a2-3)Gal(b1-4)GlcNAc(b1-3)[Neu5Ac(a2-3)Gal(b1-4)GlcNAc(b1-6)]GalNAc
# How it was run: as §1
# [9] = molecular target: Neu5Ac(a2-3)Gal(b1-4)GlcNAc(b1-6)GalNAc
# How it was run: as §1
# [10] = molecular target: Neu5Ac(a2-3)Gal(b1-4)GlcNAc(b1-6)[Gal(b1-3)]GalNAc
# How it was run: as §1
# [11] = molecular target: Neu5Ac(a2-3)Gal(b1-4)GlcNAc(b1-6)[Neu5Ac(a2-3)Gal(b1-3)]GalNAc
# How it was run: as §1
# [12] = molecular target: Neu5Ac(a2-3)Gal(b1-4)GlcNAc6S
# How it was run: as §1
# [13] = molecular target: Neu5Ac(a2-3)Gal(b1-4)[Fuc(a1-3)]GlcNAc
# How it was run: as §1
# [14] = molecular target: Neu5Ac(a2-3)Gal(b1-4)[Fuc(a1-3)]GlcNAc(b1-2)Man
# How it was run: as §1
# [15] = molecular target: Neu5Ac(a2-3)Gal(b1-4)[Fuc(a1-3)]GlcNAc(b1-3)Gal
# How it was run: as §1
# [16] = molecular target: Neu5Ac(a2-3)Gal(b1-4)[Fuc(a1-3)]GlcNAc(b1-3)Gal(b1-4)GlcNAc
# How it was run: as §1
# [17] = molecular target: Neu5Ac(a2-3)Gal(b1-4)[Fuc(a1-3)]GlcNAc(b1-3)Gal(b1-4)[Fuc(a1-3)]GlcNAc(b1-3)Gal(b1-4)[Fuc(a1-3)]GlcNAc
# How it was run: as §1
# [18] = molecular target: Neu5Ac(a2-3)Gal(b1-4)[Fuc(a1-3)]GlcNAc(b1-3)GalNAc
# How it was run: as §1
# [19] = molecular target: Neu5Ac(a2-3)Gal(b1-4)[Fuc(a1-3)]GlcNAc(b1-6)[Gal(b1-3)]GalNAc
# How it was run: as §1
# [20] = molecular target: Neu5Ac(a2-3)Gal(b1-4)[Fuc(a1-3)]GlcNAc(b1-6)[Neu5Ac(a2-3)Gal(b1-3)]GalNAc
# How it was run: as §1
# [21] = molecular target: Neu5Ac(a2-3)Gal(b1-4)[Fuc(a1-3)]GlcNAc6S
# How it was run: as §1
# [22] = molecular target: Neu5Ac(a2-3)Gal6S(b1-4)GlcNAc
# How it was run: as §1
# [23] = molecular target: Neu5Ac(a2-3)Gal6S(b1-4)[Fuc(a1-3)]GlcNAc
# How it was run: as §1
# Neu5Ac(a2-3)GalNAc = molecular target: Neu5Ac(a2-3)GalNAc
# How it was run: as §1
# [24] = molecular target: Neu5Ac(a2-3)GalNAc(b1-4)GlcNAc
# How it was run: as §1
# [25] = molecular target: Neu5Ac(a2-3)[GalNAc(b1-4)]Gal(b1-4)Glc
# How it was run: as §1
# [26] = molecular target: Neu5Ac(a2-3)[GalNAc(b1-4)]Gal(b1-4)GlcNAc
# How it was run: as §1
# [27] = molecular target: Neu5Ac(a2-3)[GalNAc(b1-4)]Gal(b1-4)GlcNAc(b1-3)GalNAc
# How it was run: as §1
# [28] = molecular target: Neu5Ac(a2-3)[Neu5Ac(a2-6)]GalNAc
# How it was run: as §1
# Neu5Ac(a2-6)Gal = molecular target: Neu5Ac(a2-6)Gal
# How it was run: as §1
# [29] = molecular target: Neu5Ac(a2-6)Gal(b1-3)GlcNAc(b1-3)[Gal(b1-4)GlcNAc(b1-6)]Gal(b1-4)Glc
# How it was run: as §1
# Neu5Ac(a2-6)Gal(b1-4)Glc = molecular target: Neu5Ac(a2-6)Gal(b1-4)Glc
# How it was run: as §1
# [30] = molecular target: Neu5Ac(a2-6)Gal(b1-4)GlcNAc
# How it was run: as §1
# [31] = molecular target: Neu5Ac(a2-6)Gal(b1-4)GlcNAc(b1-2)Man
# How it was run: as §1
# [32] = molecular target: Neu5Ac(a2-6)Gal(b1-4)GlcNAc(b1-2)Man(a1-3)Man(b1-4)GlcNAc(b1-4)GlcNAc
# How it was run: as §1
# [33] = molecular target: Neu5Ac(a2-6)Gal(b1-4)GlcNAc(b1-2)Man(a1-3)[Gal(b1-4)GlcNAc(b1-2)Man(a1-6)]Man(b1-4)GlcNAc(b1-4)GlcNAc
# How it was run: as §1
# [34] = molecular target: Neu5Ac(a2-6)Gal(b1-4)GlcNAc(b1-2)Man(a1-3)[GlcNAc(b1-2)Man(a1-6)]Man(b1-4)GlcNAc(b1-4)GlcNAc
# How it was run: as §1
# [35] = molecular target: Neu5Ac(a2-6)Gal(b1-4)GlcNAc(b1-2)Man(a1-3)[GlcNAc(b1-4)][Neu5Ac(a2-6)Gal(b1-4)GlcNAc(b1-2)Man(a1-6)]Man(b1-4)GlcNAc(b1-4)GlcNAc
# How it was run: as §1
binder,measurement,setting,value
Aap lectin (Staphylococcus epidermidis) (protein) VNLNYSSPFMSLLSMPADSSSNNTKNTIDIPPTTVKGRDNYDFYGRVDIESNPTDLNATNLTRYNYGQPPGTTTAGAVQFKNQVSFDKDFDFNIRVANNRQSNTTGADGWGFMFSKKDGDDFLKNGGILREKGTPSAAGFRIDTGYYNNDPLDKIQKQAGQGYRGYGTFVKNDSQGNTSKVGSGTPSTDFLNYADNTTNDLDGKFHGQKLNNVNLKYNASNQTFTATYAGKTWTATLSELGLSPTDSYNFLVTSS,glycan array binding signal (z-score),[1],-0.514
same,glycan array binding signal (z-score),[2],2.15
same,glycan array binding signal (z-score),[3],-0.918
same,glycan array binding signal (z-score),[4],-0.88
same,glycan array binding signal (z-score),[5],-0.583
same,glycan array binding signal (z-score),[6],-0.494
same,glycan array binding signal (z-score),[7],-0.799
same,glycan array binding signal (z-score),[8],-0.878
same,glycan array binding signal (z-score),[9],-0.544
same,glycan array binding signal (z-score),[10],1.15
same,glycan array binding signal (z-score),[11],-0.634
same,glycan array binding signal (z-score),[12],0.165
same,glycan array binding signal (z-score),[13],-0.756
same,glycan array binding signal (z-score),[14],-0.708
same,glycan array binding signal (z-score),[15],-0.104
same,glycan array binding signal (z-score),[16],-0.095
same,glycan array binding signal (z-score),[17],1.12
same,glycan array binding signal (z-score),[18],-0.446
same,glycan array binding signal (z-score),[19],1.22
same,glycan array binding signal (z-score),[20],1.18
same,glycan array binding signal (z-score),[21],-0.838
same,glycan array binding signal (z-score),[22],-0.476
same,glycan array binding signal (z-score),[23],0.427
same,glycan array binding signal (z-score),Neu5Ac(a2-3)GalNAc,-0.889
same,glycan array binding signal (z-score),[24],-0.779
same,glycan array binding signal (z-score),[25],1.1
same,glycan array binding signal (z-score),[26],-0.908
same,glycan array binding signal (z-score),[27],1.26
same,glycan array binding signal (z-score),[28],-0.893
same,glycan array binding signal (z-score),Neu5Ac(a2-6)Gal,0.438
same,glycan array binding signal (z-score),[29],-0.894
same,glycan array binding signal (z-score),Neu5Ac(a2-6)Gal(b1-4)Glc,0.627
same,glycan array binding signal (z-score),[30],-0.602
same,glycan array binding signal (z-score),[31],-0.328
same,glycan array binding signal (z-score),[32],-0.873
same,glycan array binding signal (z-score),[33],-0.696
same,glycan array binding signal (z-score),[34],-0.88
same,glycan array binding signal (z-score),[35],-0.576

# 2 neighbouring entries already listed, for reference:
binder,measurement,setting,value
Aap lectin (Staphylococcus epidermidis) (protein) VNLNYSSPFMSLLSMPADSSSNNTKNTIDIPPTTVKGRDNYDFYGRVDIESNPTDLNATNLTRYNYGQPPGTTTAGAVQFKNQVSFDKDFDFNIRVANNRQSNTTGADGWGFMFSKKDGDDFLKNGGILREKGTPSAAGFRIDTGYYNNDPLDKIQKQAGQGYRGYGTFVKNDSQGNTSKVGSGTPSTDFLNYADNTTNDLDGKFHGQKLNNVNLKYNASNQTFTATYAGKTWTATLSELGLSPTDSYNFLVTSS,glycan array binding signal (z-score),[23],0.427
same,glycan array binding signal (z-score),Neu5Ac(a2-3)GalNAc,-0.889
